Data source: PubChem BioAssay AID686943 (Drosophila RNAi Screening Center, 2013)
Screen: 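Search across the genome for regulators of signalling from receptor tyrosine kinase to ERK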 (primary screen). Cells: Drosophila S2R+ haemocyte-like cells expressing YFP-tagged ERK (Rolled). Knock-down reagent: long dsRNA against Drosophila genes. Conditions: insulin stimulation versus unstimulated cells; dose and duration not given. Read-out: 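Antibody staining for doubly phosphorylated ERK divided by ERK-YFP signal, as plate z-scores, in insulin-treated and untreated cells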. Scale: replicate 1, z-score of dpERK with insulin and replicate 2, z-score of dpERK with insulin: higher = more active ERK per ERK-YFP after insulin.
The screen tested about 23,000 reagents; this is a random part of those with a known target gene and a result. 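Extra replicates exist only for a retested subset of genes; insulin dose and duration not given; both raised and lowered dpERK matter.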 The numbers tell different reagents against one gene apart. Names joined by + are all predicted targets of the reagent. Not all columns of the deposit are shown. Not given: the amount of reagent, the time to read-out.

Against Fer3HCH, the values are replicate 1, z-score of dpERK with insulin -0.03; replicate 2, z-score of dpERK with insulin 0.44.
CG6048 gave replicate 1, z-score of dpERK with insulin -0.07; replicate 2, z-score of dpERK with insulin 0.01.
Against gek the deposit lists replicate 1, z-score of dpERK with insulin 0.63; replicate 2, z-score of dpERK with insulin 0.39.
With knock-down of Gmppb, the record shows replicate 1, z-score of dpERK with insulin -0.21; replicate 2, z-score of dpERK with insulin 1.32.
After knock-down of CG17362 the results were replicate 1, z-score of dpERK with insulin -0.13; replicate 2, z-score of dpERK with insulin 0.28.
After knock-down of CG31460 the results were replicate 1, z-score of dpERK with insulin -0.83; replicate 2, z-score of dpERK with insulin -0.5.
After knock-down of CG5800, the record shows replicate 1, z-score of dpERK with insulin 0.31; replicate 2, z-score of dpERK with insulin 0.23.
nub #1 showed replicate 1, z-score of dpERK with insulin 1.15; replicate 2, z-score of dpERK with insulin 0.51.
With knock-down of nub #2 the results were replicate 1, z-score of dpERK with insulin 0.27; replicate 2, z-score of dpERK with insulin 0.18.
For nub #3, the entry reads replicate 1, z-score of dpERK with insulin 0.23; replicate 2, z-score of dpERK with insulin -0.82.
With knock-down of nub #4 the results were replicate 1, z-score of dpERK with insulin 0.19; replicate 2, z-score of dpERK with insulin 0.23.
For betaTry #1, the values are replicate 1, z-score of dpERK with insulin 1.02; replicate 2, z-score of dpERK with insulin 0.77.
betaTry #2 showed replicate 1, z-score of dpERK with insulin 0.17; replicate 2, z-score of dpERK with insulin -0.21.
With knock-down of disco, the screen gave replicate 1, z-score of dpERK with insulin -0.37; replicate 2, z-score of dpERK with insulin 0.45.
Against CG2519, the values are replicate 1, z-score of dpERK with insulin -0.72; replicate 2, z-score of dpERK with insulin 0.1.
Atg10 + CG18853 + CG12822 scored replicate 1, z-score of dpERK with insulin 0.51; replicate 2, z-score of dpERK with insulin 0.42.
Silencing of Ance-2 resulted in: replicate 1, z-score of dpERK with insulin -0.68; replicate 2, z-score of dpERK with insulin 0.
CG42537 gave replicate 1, z-score of dpERK with insulin 0.13; replicate 2, z-score of dpERK with insulin 0.04.
For wor, the values are replicate 1, z-score of dpERK with insulin 0.08; replicate 2, z-score of dpERK with insulin -0.19.
CG3777 showed replicate 1, z-score of dpERK with insulin 0.63; replicate 2, z-score of dpERK with insulin 1.74.
Andorra showed replicate 1, z-score of dpERK with insulin 0.61; replicate 2, z-score of dpERK with insulin -0.13.
Depletion of CAHbeta came out at: replicate 1, z-score of dpERK with insulin -0.51; replicate 2, z-score of dpERK with insulin 0.01.
Knock-down of dsf came out at: replicate 1, z-score of dpERK with insulin -1.94; replicate 2, z-score of dpERK with insulin -2.06.
Silencing of Ing5 resulted in: replicate 1, z-score of dpERK with insulin -2.91; replicate 2, z-score of dpERK with insulin -2.22.
With knock-down of CG42512 + CG32573 #1, the record shows replicate 1, z-score of dpERK with insulin 0.33; replicate 2, z-score of dpERK with insulin -0.27.
Against CG42512 + CG32573 #2, the values are replicate 1, z-score of dpERK with insulin 0.06; replicate 2, z-score of dpERK with insulin 0.17.
Against CG42512 + CG32573 #3 the deposit lists replicate 1, z-score of dpERK with insulin 1.65; replicate 2, z-score of dpERK with insulin 0.3.
sut4 gave replicate 1, z-score of dpERK with insulin 0.1; replicate 2, z-score of dpERK with insulin -0.14.
Taf12L scored replicate 1, z-score of dpERK with insulin -0.07; replicate 2, z-score of dpERK with insulin 0.79.
After knock-down of ApepP, the record shows replicate 1, z-score of dpERK with insulin -1.67; replicate 2, z-score of dpERK with insulin -0.01.
Knock-down of CG5561 resulted in: replicate 1, z-score of dpERK with insulin 0.7; replicate 2, z-score of dpERK with insulin 0.7.
With knock-down of CG15605, the record shows replicate 1, z-score of dpERK with insulin -0.17; replicate 2, z-score of dpERK with insulin 0.82.
Against CHMP2B the deposit lists replicate 1, z-score of dpERK with insulin 0.05; replicate 2, z-score of dpERK with insulin 0.15.
Silencing of slam resulted in: replicate 1, z-score of dpERK with insulin 0.17; replicate 2, z-score of dpERK with insulin -0.22.
CG15599 scored replicate 1, z-score of dpERK with insulin -0.64; replicate 2, z-score of dpERK with insulin -0.51.
Against VhaAC39-1, the entry reads replicate 1, z-score of dpERK with insulin 0.82; replicate 2, z-score of dpERK with insulin 0.53.
Silencing of CG12609 resulted in: replicate 1, z-score of dpERK with insulin -0.9; replicate 2, z-score of dpERK with insulin 0.02.
Knock-down of salto came out at: replicate 1, z-score of dpERK with insulin 0.06; replicate 2, z-score of dpERK with insulin 0.2.
After knock-down of CG2126, the record shows replicate 1, z-score of dpERK with insulin 1.93; replicate 2, z-score of dpERK with insulin -1.82.
Tes gave replicate 1, z-score of dpERK with insulin -0.67; replicate 2, z-score of dpERK with insulin 0.53.

Reformatted: entries from further up.
Fer3HCH
- replicate 1, z-score of dpERK with insulin: -0.03
- replicate 2, z-score of dpERK with insulin: 0.44

CG6048
- replicate 1, z-score of dpERK with insulin: -0.07
- replicate 2, z-score of dpERK with insulin: 0.01
